Source: patent US8530177B2, “Chloral hydrate detection” (Randox Laboratories Limited, priority 2010, dated 2013)
At least one compound was matched to its structure with a doubt left. Some entries share one result that the patent states for a list of compounds.

How the values were obtained:
[1] = system: antibody of the invention (polyclonal IgG raised against Immunogen II, TCG-BTG); test: Competitive ELISA for TCG: cross-reactivity and specificity of the antibody; type: binding, sheep
Protocol: TCG was coupled to bovine thyroglobulin (Immunogen II, Example 5). The resulting immunogen was administered to adult sheep on a monthly basis to provide target-specific polyclonal antisera. IgG was extracted from the antisera via caprylic acid/ammonium sulphate precipitation of immunoglobulin. Microtitre plates (Thermo Scientific, 468667) were coated with antibody (125 μl) in coating buffer (10 mM Tris pH 8.5) at 37° C. for 2 hours. Antibody was coated at 1.25 μg/ml. The plates were then washed. 50 μl of sample/standard (trichloroethyl glucuronide, Randox LK811; chloral hydrate, Sigma C8383-100 g; trichloroacetic acid, Fisher Scientific T/3000/50; ETG, Randox LK589) was added to the appropriate wells in triplicate, followed by 75 μl of hapten A-HRP conjugate at ¼K and incubated at 25° C. for 1 hour. The plates were then washed and 125 μl of TMB (Randox, 4380-15) was added to each well and left at room temperature for 20 mins in the dark. The reaction was stopped using 125 μl of 0.2M sulphuric acid. The absorbances were read at 450 nm with an ELISA microplate reader (BIO-TEK Instruments, Elx800) and the means calculated. Antibody specificity and sensitivity were then determined.
Competitive ELISA results in the Table 1 below highlight the specificity of the antibody of the invention towards TCG.

[2] = metabolite of chloral hydrate; cited from earlier work

Compound	% CR = percentage cross-reactivity based on 100% specificity to TCG ([1]; competitive ELISA)	IC50 = standard concentration which produces 50% B/B0 ([1]; competitive ELISA, hapten A-HRP conjugate)	% B/B0 ([1]; standard 31.25 ng/ml)	A450 (absorbance at 450 nm) ([1]; standard 31.25 ng/ml)	% B/B0 ([1]; standard 62.5 ng/ml)	A450 (absorbance at 450 nm) ([1]; standard 62.5 ng/ml)	% B/B0 ([1]; standard 125 ng/ml)	A450 (absorbance at 450 nm) ([1]; standard 125 ng/ml)	% B/B0 ([1]; standard 250 ng/ml)	A450 (absorbance at 450 nm) ([1]; standard 250 ng/ml)	% B/B0 ([1]; standard 500 ng/ml)	A450 (absorbance at 450 nm) ([1]; standard 500 ng/ml)	% B/B0 ([1]; standard 1000 ng/ml)	A450 (absorbance at 450 nm) ([1]; standard 1000 ng/ml)	% B/B0 ([1]; standard 2000 ng/ml)	A450 (absorbance at 450 nm) ([1]; standard 2000 ng/ml)	half-life [2]
OC(O)C(Cl)(Cl)Cl [Chloral Hydrate, 2,2,2-trichloroethanediol]	<<0.69%	>>2000 ng/ml	95.7%	1.457	99.5%	1.516	95.5%	1.455	86.9%	1.324	89.2%	1.359	83.8%	1.277	78.5%	1.195	
O=C(O)[C@H]1O[C@@H](OCC(Cl)(Cl)Cl)[C@H](O)[C@@H](O)[C@@H]1O [TCG, trichloroethanol glucuronide]																	7 to 10 h
